In patent publication US20240076391A1 (ONCURIOUS, published 2024):
Numbering of substitutions follows the chain as printed. These are yes or no findings as the source states them, for the method shown. Some binding calls cover weakened binding; strength is not graded here. Blank lines part the entries; values can stand above or below the binder they belong to.

The chains behind the UniProt entries cited, without tags or fusion partners. Where a name states a change or a piece, a line headed by the entry shows the natural chain unless it says otherwise.
UniProt P51685: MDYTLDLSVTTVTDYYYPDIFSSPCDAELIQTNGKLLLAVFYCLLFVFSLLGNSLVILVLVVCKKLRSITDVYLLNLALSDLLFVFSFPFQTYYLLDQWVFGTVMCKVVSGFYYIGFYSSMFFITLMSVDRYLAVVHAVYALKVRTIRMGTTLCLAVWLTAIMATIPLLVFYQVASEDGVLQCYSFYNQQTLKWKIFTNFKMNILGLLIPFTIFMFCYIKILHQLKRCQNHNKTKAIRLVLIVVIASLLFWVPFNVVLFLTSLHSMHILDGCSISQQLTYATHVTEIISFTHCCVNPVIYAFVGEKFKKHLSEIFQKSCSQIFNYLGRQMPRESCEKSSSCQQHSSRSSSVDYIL

Assays:
[1] = target: N-terminal deletion human CCR8 (delta 18-3XHA) (human) (UniProt P51685); assay: flow cytometry; an extracellular loop binder is defined in paragraph 224 as binding on hCCR8 cells and on human CCR8 (delta18-3XHA)
[2] = target: T1, human CCR8 (human, UniProt P51685 1-355); assay: flow cytometry, human CCR8 stably expressed in HEK293 cells
T1 construct: also called hCCR8

[3] = target: T1, human CCR8; assay: flow cytometry, epitope mapping on transfected HEK293 cells
[4] = target: T1, human CCR8; assay: flow cytometry competition with FLAG3-His6 tagged parental VHH-62 on hCCR8 cells

binding [1]: binds
binding [2]: binds
binding [3]: binds
B1: VHH-62 (VHH, not shown: small tags and cut ends)
VHH: EVQLVESGGGLVQPGGSLRLSCAASGFSFSSFALSWYRQAPGKERELVARITTTGATNYADSVKGRFTISRDNAKNMGYLQMNSLRPEDTAVYYCNARARLSSVFDYWGQGTLVTVSS

binding [4]: binds
B2: VHH-81 (VHH, not shown: small tags and cut ends)
VHH: B1 VHH with E1D, M77T, G78V, S102W
